Experimental findings from PMC4605305 are described below.

Sequences of proteins named here, by UniProt entry; tags and fusion partners are left off. A change or cut given only in a name is not applied to a line headed by its entry. Residues count along the entry.
UniProt P23246, 266-484: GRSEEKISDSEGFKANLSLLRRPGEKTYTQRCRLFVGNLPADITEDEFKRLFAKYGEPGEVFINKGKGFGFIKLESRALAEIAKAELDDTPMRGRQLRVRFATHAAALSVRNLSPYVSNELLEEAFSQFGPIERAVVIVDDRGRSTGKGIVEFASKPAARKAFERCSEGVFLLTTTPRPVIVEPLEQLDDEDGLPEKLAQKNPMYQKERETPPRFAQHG
UniProt P23246, 299-449: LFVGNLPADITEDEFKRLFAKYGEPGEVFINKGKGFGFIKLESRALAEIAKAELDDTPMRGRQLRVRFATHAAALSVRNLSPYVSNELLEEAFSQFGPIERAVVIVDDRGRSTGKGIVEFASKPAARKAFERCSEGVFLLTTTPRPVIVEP
UniProt P23246, 266-365: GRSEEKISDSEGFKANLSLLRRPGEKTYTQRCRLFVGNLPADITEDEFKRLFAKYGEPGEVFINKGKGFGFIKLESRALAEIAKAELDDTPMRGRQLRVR
UniProt P14866: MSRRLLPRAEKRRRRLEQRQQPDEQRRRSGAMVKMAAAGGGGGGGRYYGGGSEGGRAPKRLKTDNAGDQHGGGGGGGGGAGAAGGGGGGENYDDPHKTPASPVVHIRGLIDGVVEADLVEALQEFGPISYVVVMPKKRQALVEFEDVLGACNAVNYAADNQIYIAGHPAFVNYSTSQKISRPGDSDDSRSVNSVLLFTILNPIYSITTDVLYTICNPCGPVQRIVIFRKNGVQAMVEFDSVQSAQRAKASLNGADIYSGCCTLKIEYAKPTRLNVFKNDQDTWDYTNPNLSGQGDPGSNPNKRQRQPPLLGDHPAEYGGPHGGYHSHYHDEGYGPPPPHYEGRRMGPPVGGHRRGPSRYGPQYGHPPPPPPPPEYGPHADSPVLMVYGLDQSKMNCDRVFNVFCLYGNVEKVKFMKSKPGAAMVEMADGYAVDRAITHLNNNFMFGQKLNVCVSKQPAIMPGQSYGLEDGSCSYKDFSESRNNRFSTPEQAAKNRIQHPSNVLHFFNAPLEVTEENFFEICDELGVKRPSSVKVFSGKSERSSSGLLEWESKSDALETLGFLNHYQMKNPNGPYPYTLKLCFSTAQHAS

Series [1] deals with PSF full-length (PSF-FL) (human) (UniProt P23246). In words: UV crosslinking competition. As to conditions: FLAG-TRAP150 full-length, near complete inhibition at equimolar; EMSA: similar plus RNasin, 1 mM DTT, 10 mM KCl, then 0.5 ug/ul heparin. Fig S3 prints seven relative Kd values (1.8, 1.3, 3.2, 1.4, 1.2, 1.3); recombinant protein; residues 1-707; protein details: 6xHis-FLAG N-term; label: uniform 32P.

For series [2], the target named is PSF exRRMs (human) (UniProt P23246). In words: UV crosslinking competition. The note with it: EMSA: similar plus RNasin, 1 mM DTT, 10 mM KCl, then 0.5 ug/ul heparin. Fig S3 prints seven relative Kd values (1.8, 1.3, 3.2, 1.4, 1.2, 1.3), recombinant protein, residues 266-484, protein details: 6xHis-FLAG N-term, label: uniform 32P.
The target in series [3] is hnRNP L (UniProt P14866). In words: UV crosslinking. As to conditions: UV crosslinking: 12 mM Tris pH 7.5, 120 mM NaCl, 3 mM MgCl2, 1 mM ATP, 20 mM phosphocreatine, 0.1 mM EDTA, 12% glycerol, 1.3% PVA, 25 ng/ul yeast tRNA, 20 ng/ul BSA; recombinant protein; protein details: 6xHis; label: uniform 32P.
Series [4] has as its target PSF minRRMs (human) (UniProt P23246). In words: UV crosslinking. As to conditions: UV crosslinking: 12 mM Tris pH 7.5, 120 mM NaCl, 3 mM MgCl2, 1 mM ATP, 20 mM phosphocreatine, 0.1 mM EDTA, 12% glycerol, 1.3% PVA, 25 ng/ul yeast tRNA, 20 ng/ul BSA; recombinant protein; residues 299-449; protein details: 6xHis-FLAG N-term; label: uniform 32P.
In series [5] the target is PSF exRRMs (human) (UniProt P23246). In words: UV crosslinking. The note with it: lower affinity than full-length PSF; UV crosslinking: 12 mM Tris pH 7.5, 120 mM NaCl, 3 mM MgCl2, 1 mM ATP, 20 mM phosphocreatine, 0.1 mM EDTA, 12% glycerol, 1.3% PVA, 25 ng/ul yeast tRNA, 20 ng/ul BSA; recombinant protein; residues 266-484; protein details: 6xHis-FLAG N-term; label: uniform 32P.

Series [6] deals with PSF exRRM1 (human) (UniProt P23246). The series can be described thus: EMSA. As to conditions: little ability to bind; EMSA: similar plus RNasin, 1 mM DTT, 10 mM KCl, then 0.5 ug/ul heparin. Fig S3 prints seven relative Kd values (1.8, 1.3, 3.2, 1.4, 1.2, 1.3); recombinant protein; residues 266-365; protein details: 6xHis-FLAG N-term; label: uniform 32P.

For some assays here: The comparison behind a weaker result is the experiment's own reference, which may not be listed here. For some assays here: The exact form of at least one protein or probe is not confirmed. For some assays here: At least one verdict rests on a figure or table, not on a statement of the authors.

“ACGCGUCCACUUUCAAGUGACCCCUUACCUACUCACACCACUGCAUUCUCACCCGCAAGCACCUUUGACGCGU [ESS1]”: the binding result in series [1] is reported as “binds more weakly”; in series [2] (GST-TRAP150 266-755, near complete inhibition at equimolar) it was “binds more weakly”; in series [2] (GST-TRAP150 PID (686-755), near complete inhibition at equimolar), “binds more weakly”; in series [2] (GST-TRAP150 deltaN (266-955), near complete inhibition at equimolar), “binds more weakly”; in series [3], “binds”; in series [4] it was “binds”. The binding result in series [5] and in series [6] was “binds more weakly” each time.
